Values from PubChem BioAssay AID1508597 (Cure First, 2020)
Shown is an unselected part of the about 2,100 reagents, under one of the conditions tested. 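Calls flag viability under 80% in either arm, not effects specific to rucaparib; the reference for percent is not stated.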 Some reagents were tested in more than one well and are listed for each. No sequences are given here. Not stated in the record: the 100% reference.

- Assay: 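Survival screen with siRNA in ovarian cancer cells derived from patients, with or without rucaparib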 (primary screen)
- Cell system: human ovarian carcinoma lines grown from tumours: OCI-P5x (papillary serous) and OCI-C5x (clear cell)
- Knock-down reagent: siRNA pool against human genes, 1.25 pmol siRNA per well
- Timing: 72 h or 96 h, depending on the cell culture
- Treatment: rucaparib 20 µM (about IC30) or vehicle, present until read-out
- Rucaparib or vehicle: Rucaparib
- Cell line: OCI-C5x (clear cell)
- Detection: 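ATP luminescence measured at 72 or 96 h according to the culture, then normalised and expressed as percent viability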
- Direction: viability, normalised: higher = more viable cells remaining
- Rule for the call: 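a well counts as a hit if its normalised viability is under 80 percent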
- Calls: active = viability under 80%; inactive = viability 80% or more

no.	gene	technical replicate	viability, normalised (%)	activity call
1	MED24	1	61	active
2	MED24	2	44.6	active
3	MED24	3	49.9	active
4	WNK4	1	53.1	active
5	WNK4	2	50.2	active
6	WNK4	3	46.4	active
7	MAPK11	1	58.9	active
8	MAPK11	2	61.9	active
9	MAPK11	3	45.4	active
10	TAF9	1	31.9	active
11	TAF9	2	37.2	active
12	TAF9	3	54	active
13	ACTR6	1	41.2	active
14	ACTR6	2	42.6	active
15	ACTR6	3	48.9	active
16	RING1	1	59	active
17	RING1	2	47.8	active
18	RING1	3	49.3	active
19	SCML2	1	49.2	active
20	SCML2	2	46	active
21	SCML2	3	46.4	active
22	SGK2	1	60.2	active
23	SGK2	2	66.6	active
24	SGK2	3	49.9	active
25	MTA3	1	42	active
26	MTA3	2	50.9	active
27	MTA3	3	49.6	active
28	INTS12	1	46.6	active
29	INTS12	2	37	active
30	INTS12	3	59.2	active
31	FOXP3	1	59.2	active
32	FOXP3	2	50.4	active
33	FOXP3	3	51.8	active
34	MAK	1	54.6	active
35	MAK	2	52.8	active
36	MAK	3	61.6	active
37	PTTG1	1	42.8	active
38	PTTG1	1	47.2	active
39	PTTG1	2	39.6	active
40	PTTG1	2	51.2	active
41	PTTG1	3	54.9	active
42	PTTG1	3	36.4	active
43	ENPP2	1	62.7	active
44	ENPP2	2	60.6	active
45	ENPP2	3	51.9	active
46	FANCL	1	45.6	active
47	FANCL	2	47.3	active
48	FANCL	3	45.1	active
49	RAG1	1	56.5	active
50	RAG1	2	50.9	active
51	RAG1	3	32.4	active
52	PER1	1	32.6	active
53	PER1	1	44.4	active
54	PER1	2	40.1	active
55	PER1	2	34.1	active
56	PER1	3	36.6	active
57	PER1	3	47.6	active

A few values from the list.
SGK2, technical replicate 3, activity call → active
Under “activity call”, FOXP3, technical replicate 2 shows active
MAK, technical replicate 3, activity call = active
Value for MED24, technical replicate 1 under “viability, normalised (%)”: 61
SGK2, technical replicate 1, viability, normalised (%) = 60.2
For “activity call”, TAF9, technical replicate 2 has active
